Reference: PubChem BioAssay AID504774 (Drosophila RNAi Screening Center, 2011)
Purpose: 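Fly genes whose loss alters survival after alkylation damage to DNA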 (primary screen). Cell system: Drosophila Kc167 cells. Reagents: long dsRNA against Drosophila genes, about 0.25 µg dsRNA per well. Time to read-out: about 6 days: 3 days knock-down, then 3 days with or without MMS. Treatment: methyl methanesulphonate 0.004% (w/v) for 3 days after knock-down. Read-out: 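Viability in wells given MMS, read as ATP luminescence, normalised by quantiles plate by plate and averaged across replicates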. Reading the numbers: mean viability with MMS and viability with MMS: higher = more surviving cells after MMS.
The screen tested about 23,000 reagents; below is an unselected part of those with a known target gene and a result. 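Values are quantile-normalised luminescence on an arbitrary scale; higher means more cells surviving MMS.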 A plus sign joins genes that one reagent is predicted to hit.

| gene knocked down | amplicon | mean viability with MMS | viability with MMS, replicate 1 | viability with MMS, replicate 2 |
| --- | --- | --- | --- | --- |
| Liprin-alpha | DRSC02132 | 3.50e6 | 4.01e6 | 3.88e6 |
| CG11267 | DRSC09833 | 3.64e6 | 4.05e6 | 4.16e6 |
| CG34427 | DRSC09978 | 3.53e6 | 4.03e6 | 3.99e6 |
| nol | DRSC21425 | 3.53e6 | 4.05e6 | 3.98e6 |
| t-Grip128 | DRSC07853 | 3.64e6 | 4.13e6 | 4.12e6 |
| fabp + sea | DRSC16114 | 3.39e6 | 3.85e6 | 3.81e6 |
| fabp + sea | DRSC16115 | 3.53e6 | 4.04e6 | 3.96e6 |
| CG6664 | DRSC10690 | 3.70e6 | 4.10e6 | 4.23e6 |
| mRpS18C | DRSC16538 | 3.70e6 | 4.14e6 | 4.21e6 |
| Obp99a | DRSC15303 | 3.41e6 | 3.84e6 | 3.84e6 |
| CG32192 | DRSC21760 | 3.32e6 | 3.78e6 | 3.88e6 |
| spt4 | DRSC07696 | 3.59e6 | 4.00e6 | 4.15e6 |
| CG3829 | DRSC04423 | 3.60e6 | 4.16e6 | 4.12e6 |
| mAcon2 | DRSC15629 | 3.47e6 | 3.97e6 | 3.93e6 |
| DUBAI | DRSC07281 | 3.51e6 | 4.00e6 | 3.94e6 |
| Atg16 | DRSC15052 | 3.57e6 | 4.05e6 | 4.05e6 |
| Atg16 | DRSC15300 | 3.60e6 | 4.11e6 | 4.05e6 |
| Atg16 | DRSC15375 | 3.61e6 | 4.09e6 | 4.10e6 |
| Pde8 | DRSC04503 | 3.63e6 | 3.93e6 | 4.28e6 |
| Dbct | DRSC19951 | 3.57e6 | 3.98e6 | 3.90e6 |
| CG7492 | DRSC10855 | 3.46e6 | 3.91e6 | 3.93e6 |
| CG10126 | DRSC14191 | 3.90e6 | 4.32e6 | 4.52e6 |
| TkR99D | DRSC16881 | 3.52e6 | 3.88e6 | 4.07e6 |
| CG34034 | DRSC13506 | 3.45e6 | 3.88e6 | 3.94e6 |
| RfC4 | DRSC08691 | 3.60e6 | 4.01e6 | 4.15e6 |
| Gbs-76A | DRSC11081 | 3.47e6 | 3.96e6 | 3.89e6 |
| CG9752 | DRSC04562 | 3.75e6 | 4.11e6 | 4.43e6 |
| Tdg | DRSC17119 | 3.50e6 | 3.96e6 | 3.99e6 |
| Tdg | DRSC17169 | 3.47e6 | 3.96e6 | 3.90e6 |

Next part (2 carried over from the part before).
| gene knocked down | amplicon | mean viability with MMS | viability with MMS, replicate 1 | viability with MMS, replicate 2 |
| --- | --- | --- | --- | --- |
| Tdg | DRSC17119 | 3.50e6 | 3.96e6 | 3.99e6 |
| Tdg | DRSC17169 | 3.47e6 | 3.96e6 | 3.90e6 |
| CG9636 | DRSC16529 | 3.73e6 | 4.27e6 | 4.21e6 |
| Cyp9f3 | DRSC16636 | 3.84e6 | 4.18e6 | 4.37e6 |
| Cyp28a5 | DRSC03297 | 3.62e6 | 4.24e6 | 4.02e6 |
| topi | DRSC16431 | 3.50e6 | 4.02e6 | 3.94e6 |
| CG10597 | DRSC19357 | 3.26e6 | 3.61e6 | 3.65e6 |
| Atg4a | DRSC00656 | 3.63e6 | 4.22e6 | 4.03e6 |
| CG14073 | DRSC10078 | 3.42e6 | 3.73e6 | 3.99e6 |
| CG14232 | DRSC19588 | 3.66e6 | 4.06e6 | 4.29e6 |
| CG1774 | DRSC15258 | 3.45e6 | 4.06e6 | 3.77e6 |
| Sr-CI | DRSC00790 | 1.94e6 | 3.93e6 | 4.26e6 |
| Nnp-1 | DRSC02165 | 3.47e6 | 3.99e6 | 3.88e6 |
| CG30429 | DRSC04040 | 3.51e6 | 4.16e6 | 3.80e6 |
| Cpsf100 | DRSC14146 | 3.49e6 | 3.92e6 | 4.02e6 |
| CG15394 | DRSC00408 | 3.41e6 | 3.82e6 | 3.86e6 |
| CG31326 | DRSC16532 | 3.39e6 | 3.83e6 | 3.82e6 |
| Aduk | DRSC16451 | 3.37e6 | 3.85e6 | 3.85e6 |
| Ostgamma | DRSC03074 | 3.64e6 | 4.20e6 | 4.09e6 |
